In patent US6534448B1, “Composition and method for acidizing wells and equipment without damaging precipitation” (Halliburton Energy Services, Inc., priority 2000, dated 2003):

How the values were obtained:
[1] = Reduction of Fe(III) using various electron donor agents, visual color change (Example VI); conditions: 15% HCl, 20 pounds ammonium molybdate per 1000 gallons, 2500 ppm ferric ion, donor equimolar to 1% thioglycolic acid, room temperature
[2] = Amounts of electron transfer agents needed to reduce 2500 ppm ferric ion in less than five minutes (Example III); conditions: room temperature; for optimum amount that should be used: 1% thioglycolic acid, 2500 ppm ferric ion; for amount required for the same reduction rate (2500 ppm Fe(III) in 2-3 minutes): Na2MoO4 and KI used together

| Structure (SMILES) | Reduction of Fe(III) [1] | optimum amount that should be used ([2]; 28% HCl) | amount required for the same reduction rate (2500 ppm Fe(III) in 2-3 minutes) ([2]; 28% HCl) | optimum amount that should be used ([2]; 15% HCl) |
| --- | --- | --- | --- | --- |
| O=C1O[C@H]([C@H](O)CO)C(O)=C1O [Erythorbic acid, reference compound] | No | – | – | – |
| [I-].[K+] [potassium iodide] | – | 10 pounds per 1000 gallons of the acid solution | ~20 lbs./Mgal | – |
| [Na+].[Na+].[O]=[Mo](=[O])([O-])[O-] [sodium molybdate crystalline, sodium molybdate] | – | approximately 28 pounds per 1000 gallons of the acid solution | approximately 30 lbs./Mgal | approximately 14 pounds per 1000 gallons of the acid solution |
| O=C(O)CC(S)C(=O)O (centres unmarked) [Thiomalic (mercaptosuccinic) acid] | Yes | – | – | – |
| OCC(O)CS (centres unmarked) [3-mercapto-1,2-propanediol] | Yes | – | – | – |
